# Measurements: the supplement of paper PMC10032668
# The chains behind the UniProt entries cited, without tags or fusion partners.
# DIDO1, Q9BTC0, UniProt Q9BTC0, whole entry: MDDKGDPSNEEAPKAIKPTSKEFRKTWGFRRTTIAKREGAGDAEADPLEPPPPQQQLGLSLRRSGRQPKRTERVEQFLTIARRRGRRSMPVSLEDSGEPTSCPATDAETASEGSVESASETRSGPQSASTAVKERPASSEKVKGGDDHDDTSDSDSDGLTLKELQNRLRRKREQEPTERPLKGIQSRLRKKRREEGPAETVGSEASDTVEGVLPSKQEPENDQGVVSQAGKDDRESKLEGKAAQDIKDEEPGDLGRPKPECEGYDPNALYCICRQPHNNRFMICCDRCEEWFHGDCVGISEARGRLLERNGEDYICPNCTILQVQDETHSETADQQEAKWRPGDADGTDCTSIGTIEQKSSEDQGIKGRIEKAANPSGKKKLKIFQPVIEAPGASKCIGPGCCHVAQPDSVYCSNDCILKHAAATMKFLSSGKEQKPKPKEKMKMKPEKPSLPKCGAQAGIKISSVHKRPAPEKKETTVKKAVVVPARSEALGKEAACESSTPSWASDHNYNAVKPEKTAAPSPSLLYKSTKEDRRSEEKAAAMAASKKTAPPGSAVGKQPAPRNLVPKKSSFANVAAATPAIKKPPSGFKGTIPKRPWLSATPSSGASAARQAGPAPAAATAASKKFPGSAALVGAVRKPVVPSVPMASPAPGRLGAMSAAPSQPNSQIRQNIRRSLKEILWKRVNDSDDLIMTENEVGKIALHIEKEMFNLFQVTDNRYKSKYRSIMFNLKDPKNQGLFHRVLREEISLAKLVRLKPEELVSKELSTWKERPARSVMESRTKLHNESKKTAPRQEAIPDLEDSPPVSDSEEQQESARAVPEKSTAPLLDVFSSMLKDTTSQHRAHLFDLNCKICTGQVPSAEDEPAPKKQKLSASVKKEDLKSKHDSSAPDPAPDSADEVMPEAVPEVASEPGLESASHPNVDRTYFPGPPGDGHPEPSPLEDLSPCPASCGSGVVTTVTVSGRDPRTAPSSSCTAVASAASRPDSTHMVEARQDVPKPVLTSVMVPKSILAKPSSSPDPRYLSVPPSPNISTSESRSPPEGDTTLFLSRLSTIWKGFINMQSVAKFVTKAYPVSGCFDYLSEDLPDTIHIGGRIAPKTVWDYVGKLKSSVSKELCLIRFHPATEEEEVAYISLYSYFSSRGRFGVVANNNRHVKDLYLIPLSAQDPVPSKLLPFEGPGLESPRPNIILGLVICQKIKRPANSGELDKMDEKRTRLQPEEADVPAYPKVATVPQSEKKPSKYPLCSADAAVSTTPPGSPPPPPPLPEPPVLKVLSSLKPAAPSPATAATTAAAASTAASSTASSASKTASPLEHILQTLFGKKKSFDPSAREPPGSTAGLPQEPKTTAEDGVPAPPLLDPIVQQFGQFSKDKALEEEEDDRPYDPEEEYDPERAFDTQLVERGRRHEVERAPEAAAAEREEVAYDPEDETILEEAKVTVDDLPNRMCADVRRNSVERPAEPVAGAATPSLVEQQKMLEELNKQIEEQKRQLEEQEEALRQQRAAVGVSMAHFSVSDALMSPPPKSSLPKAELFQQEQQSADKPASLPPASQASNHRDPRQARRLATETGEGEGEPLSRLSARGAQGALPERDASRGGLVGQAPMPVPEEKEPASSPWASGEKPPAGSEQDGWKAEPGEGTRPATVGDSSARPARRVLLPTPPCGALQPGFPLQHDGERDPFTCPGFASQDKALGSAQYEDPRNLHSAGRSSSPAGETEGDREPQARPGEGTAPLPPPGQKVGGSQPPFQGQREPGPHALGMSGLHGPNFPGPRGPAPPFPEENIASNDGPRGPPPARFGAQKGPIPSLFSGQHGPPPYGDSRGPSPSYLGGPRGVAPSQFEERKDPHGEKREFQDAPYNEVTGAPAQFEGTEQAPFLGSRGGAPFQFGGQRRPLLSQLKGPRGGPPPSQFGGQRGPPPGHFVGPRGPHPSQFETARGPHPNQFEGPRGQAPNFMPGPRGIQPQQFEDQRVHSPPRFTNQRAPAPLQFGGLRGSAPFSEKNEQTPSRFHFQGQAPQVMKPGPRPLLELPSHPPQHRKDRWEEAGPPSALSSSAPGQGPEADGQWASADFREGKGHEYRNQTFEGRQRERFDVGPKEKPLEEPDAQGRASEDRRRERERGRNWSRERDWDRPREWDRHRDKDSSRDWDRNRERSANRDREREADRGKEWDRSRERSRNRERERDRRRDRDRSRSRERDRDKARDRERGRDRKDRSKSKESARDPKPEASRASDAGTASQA
# DNAJB1, P25685, UniProt P25685, whole entry: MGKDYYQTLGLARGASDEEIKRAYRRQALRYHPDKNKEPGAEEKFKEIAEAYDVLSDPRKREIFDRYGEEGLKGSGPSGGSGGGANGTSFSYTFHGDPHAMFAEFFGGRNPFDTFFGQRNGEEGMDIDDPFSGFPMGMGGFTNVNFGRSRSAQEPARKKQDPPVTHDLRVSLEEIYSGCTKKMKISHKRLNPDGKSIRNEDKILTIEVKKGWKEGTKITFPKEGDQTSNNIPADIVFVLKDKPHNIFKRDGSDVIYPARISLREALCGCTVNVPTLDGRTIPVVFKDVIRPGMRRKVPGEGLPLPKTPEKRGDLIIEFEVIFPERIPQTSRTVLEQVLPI
# ± gives the standard deviation of the averaged measurements. This is one part of the list. Only hits are listed; about a third recur on repeated control peptides.
# Tests used:
# Test in all cases: PRISMA enrichment of interactor (LFQ) in peptide spot vs all other peptide spots (log2 fold change); higher = stronger / more specific binding of the interactor to the peptide
# [1] = molecular target: CSTF3, Q12996
# Procedure: (§1)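 PRISMA: 221 full-length sORF-encoded peptides (3-15 aa), plus SOS1/GLUT1 control peptides, were spot-synthesized on cellulose membranes in triplicate. Membranes were incubated with HEK293T lysate, and bound proteins were identified by LC-MS/MS with LFQ. Enrichment is the log2 fold change versus all other peptide spots; only significant interactors are listed (cutoff c=6, x0=2.8).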
# [2] = molecular target: CXorf56, Q9H5V9
# Procedure: as §1
# [3] = molecular target: DAZAP1, Q96EP5
# Procedure: as §1
# [4] = molecular target: DCXR, Q7Z4W1
# Procedure: as §1
# [5] = molecular target: DDX1, Q92499
# Procedure: as §1
# [6] = molecular target: DDX18, Q9NVP1
# Procedure: as §1
# [7] = molecular target: DDX27, Q96GQ7
# Procedure: as §1
# [8] = molecular target: DDX49, Q9Y6V7
# Procedure: as §1
# [9] = molecular target: DDX6, P26196
# Procedure: as §1
# [10] = molecular target: DECR2, Q9NUI1
# Procedure: as §1
# [11] = molecular target: DERPC, P0CG12
# Procedure: as §1
# [12] = molecular target: DHX30, Q7L2E3
# Procedure: as §1
# [13] = molecular target: DIDO1, Q9BTC0
# Procedure: as §1
# [14] = molecular target: DNAJA3, Q96EY1
# Procedure: as §1
# [15] = molecular target: DNAJB1, P25685
# Procedure: as §1
# [16] = molecular target: DNAJB11, Q9UBS4
# Procedure: as §1
# [17] = molecular target: DNAJB12, Q9NXW2
# Procedure: as §1
# [18] = molecular target: DRG1, Q9Y295
# Procedure: as §1
# [19] = molecular target: DSP, P15924
# Procedure: as §1
# [20] = molecular target: DUSP11, O75319
# Procedure: as §1
# [21] = molecular target: EDF1, O60869
# Procedure: as §1
# [22] = molecular target: EEFSEC, P57772
# Procedure: as §1
# [23] = molecular target: EFHD2, Q96C19
# Procedure: as §1
# [24] = molecular target: EHHADH, Q08426
# Procedure: as §1
# [25] = molecular target: EMG1, Q92979
# Procedure: as §1
# [26] = molecular target: ERCC3, P19447
# Procedure: as §1
# [27] = molecular target: EWSR1, Q01844
# Procedure: as §1
# [28] = molecular target: FAM136A, Q96C01
# Procedure: as §1
# [29] = molecular target: FAM50A, Q14320
# Procedure: as §1
# [30] = molecular target: FAM91A1, Q658Y4
# Procedure: as §1
# [31] = molecular target: FAM98A, Q8NCA5
# Procedure: as §1
# [32] = molecular target: FAM98B, Q52LJ0
# Procedure: as §1
# [33] = molecular target: FBL, P22087
# Procedure: as §1
# [34] = molecular target: FHL1, Q13642
# Procedure: as §1
# [35] = molecular target: FTSJ3, Q8IY81
# Procedure: as §1
# [36] = molecular target: FUBP1, Q96AE4
# Procedure: as §1
# [37] = molecular target: FUBP3, Q96I24
# Procedure: as §1
# [38] = molecular target: FUS, P35637
# Procedure: as §1
# [39] = molecular target: G3BP1, Q13283
# Procedure: as §1
# [40] = molecular target: G3BP2, Q9UN86
# Procedure: as §1
# [41] = molecular target: GABARAPL2, P60520
# Procedure: as §1
# [42] = molecular target: GMPPA, Q96IJ6
# Procedure: as §1
# [43] = molecular target: GSK3B, P49841
# Procedure: as §1
# [44] = molecular target: GTPBP1, O00178
# Procedure: as §1
# [45] = molecular target: HCFC1, P51610
# Procedure: as §1
binder,measurement,setting,value
MVDNFYF [ASPN],PRISMA enrichment of interactor (log2),[1],7.7
same,PRISMA enrichment of interactor (log2),[2],6.77
same,PRISMA enrichment of interactor (log2),[3],7.45
same,PRISMA enrichment of interactor (log2),[4],4.85
same,PRISMA enrichment of interactor (log2),[5],6.62
same,PRISMA enrichment of interactor (log2),[6],4.67
same,PRISMA enrichment of interactor (log2),[7],4.9
same,PRISMA enrichment of interactor (log2),[8],6.4
same,PRISMA enrichment of interactor (log2),[9],5.96
same,PRISMA enrichment of interactor (log2),[10],5.69
same,PRISMA enrichment of interactor (log2),[11],7.54
same,PRISMA enrichment of interactor (log2),[12],4.98
same,PRISMA enrichment of interactor (log2),[13],5.11
same,PRISMA enrichment of interactor (log2),[14],6.02
same,PRISMA enrichment of interactor (log2),[15],6.34
same,PRISMA enrichment of interactor (log2),[16],5.96
same,PRISMA enrichment of interactor (log2),[17],4.16
same,PRISMA enrichment of interactor (log2),[18],4.86
same,PRISMA enrichment of interactor (log2),[19],6.34
same,PRISMA enrichment of interactor (log2),[20],4.44
same,PRISMA enrichment of interactor (log2),[21],4.72
same,PRISMA enrichment of interactor (log2),[22],4.49
same,PRISMA enrichment of interactor (log2),[23],4.23
same,PRISMA enrichment of interactor (log2),[24],6.26
same,PRISMA enrichment of interactor (log2),[25],5.81
same,PRISMA enrichment of interactor (log2),[26],3.85
same,PRISMA enrichment of interactor (log2),[27],5.55
same,PRISMA enrichment of interactor (log2),[28],4.56
same,PRISMA enrichment of interactor (log2),[29],4.89
same,PRISMA enrichment of interactor (log2),[30],5.58
same,PRISMA enrichment of interactor (log2),[31],5.69
same,PRISMA enrichment of interactor (log2),[32],3.91
same,PRISMA enrichment of interactor (log2),[33],4.88
same,PRISMA enrichment of interactor (log2),[34],4.22
same,PRISMA enrichment of interactor (log2),[35],4.74
same,PRISMA enrichment of interactor (log2),[36],5.56 ± 2.1
same,PRISMA enrichment of interactor (log2),[37],6.7
same,PRISMA enrichment of interactor (log2),[38],5.67
same,PRISMA enrichment of interactor (log2),[39],4.61
same,PRISMA enrichment of interactor (log2),[40],6.04
same,PRISMA enrichment of interactor (log2),[41],6.13
same,PRISMA enrichment of interactor (log2),[42],4.41
same,PRISMA enrichment of interactor (log2),[43],5.97
same,PRISMA enrichment of interactor (log2),[44],6.7
same,PRISMA enrichment of interactor (log2),[45],5.66

# Random excerpt: two entries already listed
binder,measurement,setting,value
MVDNFYF [ASPN],PRISMA enrichment of interactor (log2),[1],7.7
same,PRISMA enrichment of interactor (log2),[41],6.13
